# In patent publication US20120142894A1:
# These are yes or no findings as the source states them, for the method shown.
# Target: HLA-B*0702 (human)
# Experiment: condition: RA > 10 (peptide tested from 100 µM to 0.1 µM); T2-B7 cells incubated 16 h with peptide, HLA-B*0702 surface expression stained with ME-1 mAb; relative affinity against reference peptide CMV265-274 (R10V)
row,binding,Binder
1,no binding,GPRALAETS [MAGE-A A]
2,no binding,GPRALIETS [MAGE-A I]
3,no binding,GPRALVETS [MAGE-A V]
